Assay results: the supplement of paper PMC5355238
Counter-ions that a name gives are not always drawn. The list shows a part of the results. Most values lie at the level of the controls, where differences are scatter.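 Reh, a human leukemia cell line, is read out by flow cytometry as the median γH2AX antibody signal in S-phase cells; the score counts standard deviations from the median difference of each paired plate set. Scores above 2.5 were candidate hits; scores below -2 mark compounds lowering MK1775-induced damage.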

Each compound was assayed on Reh (assay: Z' of S-phase gammaH2AX difference (drug + MK1775 minus drug alone) (Z-score); higher = stronger synergistic S-phase DNA damage with MK1775). Conditions: MK1775 concentration 400 nM; first compound 10 µM; 4 h.

Structure (SMILES) | Z' of S-phase gammaH2AX difference (Z-score)
Nc1nc(SCc2ccc([N+](=O)[O-])cc2)c2ncn([C@@H]3O[C@H](CO)[C@H](O)C3O)c2n1 (stereo partly drawn) [S-(4-Nitrobenzyl)-6-thioguanosine] + C=CCn1c(=O)c2cnc(Nc3ccc(N4CCN(C)CC4)cc3)nc2n1-c1cccc(C(C)(C)O)n1 [MK1775] | inactive: 0.0301
C[C@]12CC[C@@H]3c4ccc(O)cc4CC[C@H]3[C@@H]1CCC2=O [Estrone] + C=CCn1c(=O)c2cnc(Nc3ccc(N4CCN(C)CC4)cc3)nc2n1-c1cccc(C(C)(C)O)n1 [MK1775] | inactive: 0.452
CCCCCCCCc1ccc(CCC(N)(CO)CO)cc1 [Fingolimod (FTY720)] + C=CCn1c(=O)c2cnc(Nc3ccc(N4CCN(C)CC4)cc3)nc2n1-c1cccc(C(C)(C)O)n1 [MK1775] | inactive: -0.675
CCCCCCCC/C=C\CCCCCCCC(=O)NCCc1ccc(O)c(O)c1 [N-Oleoyldopamine] + C=CCn1c(=O)c2cnc(Nc3ccc(N4CCN(C)CC4)cc3)nc2n1-c1cccc(C(C)(C)O)n1 [MK1775] | active: 10.8
CC(=O)OCC1=C(C(=O)O)N2C(=O)[C@@H](NC(=O)CSc3ccncc3)[C@H]2SC1 [Cephapirin sodium] + C=CCn1c(=O)c2cnc(Nc3ccc(N4CCN(C)CC4)cc3)nc2n1-c1cccc(C(C)(C)O)n1 [MK1775] | inactive: 0.464
CNCCC(Oc1ccccc1OC)c1ccccc1 (stereo unspecified) [Nisoxetine hydrochloride] + C=CCn1c(=O)c2cnc(Nc3ccc(N4CCN(C)CC4)cc3)nc2n1-c1cccc(C(C)(C)O)n1 [MK1775] | inactive: -0.864
CC1CNCCN1S(=O)(=O)c1cccc2cnccc12 (stereo unspecified) + C=CCn1c(=O)c2cnc(Nc3ccc(N4CCN(C)CC4)cc3)nc2n1-c1cccc(C(C)(C)O)n1 [MK1775] | inactive: -1.15
CC1CNCCN1S(=O)(=O)c1cccc2cnccc12 (stereo unspecified) [H-7 dihydrochloride] + C=CCn1c(=O)c2cnc(Nc3ccc(N4CCN(C)CC4)cc3)nc2n1-c1cccc(C(C)(C)O)n1 [MK1775] | inactive: -0.177
O=NN(CCCl)C(=O)NC1CCCCC1 [Lomustine (CeeNU)] + C=CCn1c(=O)c2cnc(Nc3ccc(N4CCN(C)CC4)cc3)nc2n1-c1cccc(C(C)(C)O)n1 [MK1775] | inactive: 0.209
CC1CN(S(=O)(=O)c2cccc3cnccc23)CCN1 (stereo unspecified) + C=CCn1c(=O)c2cnc(Nc3ccc(N4CCN(C)CC4)cc3)nc2n1-c1cccc(C(C)(C)O)n1 [MK1775] | inactive: -0.0899
CCOC(=O)C1=C[C@]2(CC)CCCN3CCc4c(n1c1ccccc41)[C@@H]32 [Vinpocetine (Cavinton)] + C=CCn1c(=O)c2cnc(Nc3ccc(N4CCN(C)CC4)cc3)nc2n1-c1cccc(C(C)(C)O)n1 [MK1775] | inactive: 0.316
CCOC(=O)C1=C[C@]2(CC)CCCN3CCc4c(n1c1ccccc41)[C@@H]32 [Vinpocetine] + C=CCn1c(=O)c2cnc(Nc3ccc(N4CCN(C)CC4)cc3)nc2n1-c1cccc(C(C)(C)O)n1 [MK1775] | inactive: -0.602
COc1cc(Nc2ncc(F)c(Nc3ccc4c(n3)N(COP(=O)(O)O)C(=O)C(C)(C)O4)n2)cc(OC)c1OC + C=CCn1c(=O)c2cnc(Nc3ccc(N4CCN(C)CC4)cc3)nc2n1-c1cccc(C(C)(C)O)n1 [MK1775] | inactive: -0.288
Cc1nnc(C(C)C)n1C1C[C@H]2CC[C@@H](C1)N2CC[C@H](NC(=O)C1CCC(F)(F)CC1)c1ccccc1 (stereo in doubt) [Maraviroc] + C=CCn1c(=O)c2cnc(Nc3ccc(N4CCN(C)CC4)cc3)nc2n1-c1cccc(C(C)(C)O)n1 [MK1775] | inactive: 0.211
Cn1cc(-c2ccc3nnc(C(F)(F)c4ccc5ncccc5c4)n3n2)cn1 + C=CCn1c(=O)c2cnc(Nc3ccc(N4CCN(C)CC4)cc3)nc2n1-c1cccc(C(C)(C)O)n1 [MK1775] | inactive: -0.0821
CN1[C@@H](CC(=O)c2ccccc2)CCC[C@H]1C[C@H](O)c1ccccc1 [alpha-Lobeline hydrochloride] + C=CCn1c(=O)c2cnc(Nc3ccc(N4CCN(C)CC4)cc3)nc2n1-c1cccc(C(C)(C)O)n1 [MK1775] | inactive: 0.0462
CCC(CC)CC1(C(=O)Nc2ccccc2SC(=O)C(C)C)CCCCC1 [Dalcetrapib??JTT-705??] + C=CCn1c(=O)c2cnc(Nc3ccc(N4CCN(C)CC4)cc3)nc2n1-c1cccc(C(C)(C)O)n1 [MK1775] | inactive: 0.183
CSc1nc(N)c2ncn([C@@H]3O[C@H](COP(=O)(O)OP(=O)(O)OP(=O)(O)O)[C@H](O)C3O)c2n1 (stereo partly specified) [2-Methylthioadenosine triphosphate tetrasodium] + C=CCn1c(=O)c2cnc(Nc3ccc(N4CCN(C)CC4)cc3)nc2n1-c1cccc(C(C)(C)O)n1 [MK1775] | inactive: -0.194

Taken from above.
Z' of S-phase gammaH2AX difference (Z-score), CNCCC(Oc1ccccc1OC)c1ccccc1 (stereo unspecified) [Nisoxetine hydrochloride] + C=CCn1c(=O)c2cnc(Nc3ccc(N4CCN(C)CC4)cc3)nc2n1-c1cccc(C(C)(C)O)n1 [MK1775] reads inactive: -0.864
Z' of S-phase gammaH2AX difference (Z-score), Cn1cc(-c2ccc3nnc(C(F)(F)c4ccc5ncccc5c4)n3n2)cn1 + C=CCn1c(=O)c2cnc(Nc3ccc(N4CCN(C)CC4)cc3)nc2n1-c1cccc(C(C)(C)O)n1 [MK1775] reads inactive: -0.0821

Going on with the list:

Structure (SMILES) | Z' of S-phase gammaH2AX difference (Z-score)
CC(=O)C(C)=O [2,3-Butanedione] + C=CCn1c(=O)c2cnc(Nc3ccc(N4CCN(C)CC4)cc3)nc2n1-c1cccc(C(C)(C)O)n1 [MK1775] | inactive: 0.435
C#CCN1C(C)=C(C(=O)OC)C(c2cccc([N+](=O)[O-])c2)C(C(=O)OCC)=C1C (stereo unspecified) + C=CCn1c(=O)c2cnc(Nc3ccc(N4CCN(C)CC4)cc3)nc2n1-c1cccc(C(C)(C)O)n1 [MK1775] | inactive: -0.184
N=C(N)NCCC[C@H](N)C(=O)O [L-Arginine] + C=CCn1c(=O)c2cnc(Nc3ccc(N4CCN(C)CC4)cc3)nc2n1-c1cccc(C(C)(C)O)n1 [MK1775] | inactive: -0.281
CNCCC(Oc1ccc(C(F)(F)F)cc1)c1ccccc1 (stereo unspecified) [Fluoxetine hydrochloride] + C=CCn1c(=O)c2cnc(Nc3ccc(N4CCN(C)CC4)cc3)nc2n1-c1cccc(C(C)(C)O)n1 [MK1775] | inactive: -0.785
Cc1nc2n(c(=O)c1CCN1CCC(c3noc4cc(F)ccc34)CC1)CCCC2 [Risperidone] + C=CCn1c(=O)c2cnc(Nc3ccc(N4CCN(C)CC4)cc3)nc2n1-c1cccc(C(C)(C)O)n1 [MK1775] | inactive: -0.0242
C[N+](C)([O-])CCNc1ccc(NCC[N+](C)(C)[O-])c2c1C(=O)c1c(O)ccc(O)c1C2=O [Banoxantrone dihydrochloride] + C=CCn1c(=O)c2cnc(Nc3ccc(N4CCN(C)CC4)cc3)nc2n1-c1cccc(C(C)(C)O)n1 [MK1775] | inactive: 0.194
CCCCNC(=O)NS(=O)(=O)c1ccc(C)cc1 [Tolbutamide] + C=CCn1c(=O)c2cnc(Nc3ccc(N4CCN(C)CC4)cc3)nc2n1-c1cccc(C(C)(C)O)n1 [MK1775] | inactive: 0.487
CCCS(=O)(=O)Nc1ccc(F)c(C(=O)c2c[nH]c3ncc(-c4ccc(Cl)cc4)cc23)c1F [Vemurafenib (PLX4032)] + C=CCn1c(=O)c2cnc(Nc3ccc(N4CCN(C)CC4)cc3)nc2n1-c1cccc(C(C)(C)O)n1 [MK1775] | inactive: -0.0628
CCCCCCCCCCC/C=C\C(C)(C)/C=C\CCCC(=O)O [7,7-Dimethyl-(5Z,8Z)-eicosadienoic acid] + C=CCn1c(=O)c2cnc(Nc3ccc(N4CCN(C)CC4)cc3)nc2n1-c1cccc(C(C)(C)O)n1 [MK1775] | inactive: 0.338
CC(C)NCC(O)COc1cccc2ccccc12 (stereo unspecified) [(?)-Propranolol hydrochloride] + C=CCn1c(=O)c2cnc(Nc3ccc(N4CCN(C)CC4)cc3)nc2n1-c1cccc(C(C)(C)O)n1 [MK1775] | inactive: 0.247
CC(C)C[C@H](NC(=O)[C@H]1O[C@@H]1C(=O)O)C(=O)NCCCCN=C(N)N + C=CCn1c(=O)c2cnc(Nc3ccc(N4CCN(C)CC4)cc3)nc2n1-c1cccc(C(C)(C)O)n1 [MK1775] | inactive: -0.619
CN(C)Cc1ccc(-c2nc3cccc4c3n2CCNC4=O)cc1 + C=CCn1c(=O)c2cnc(Nc3ccc(N4CCN(C)CC4)cc3)nc2n1-c1cccc(C(C)(C)O)n1 [MK1775] | inactive: 0.0821
Cc1[nH]c(/C=C2\C(=O)Nc3ccc(S(=O)(=O)N(C)c4cccc(Cl)c4)cc32)c(C)c1C(=O)N1CCN(C)CC1 + C=CCn1c(=O)c2cnc(Nc3ccc(N4CCN(C)CC4)cc3)nc2n1-c1cccc(C(C)(C)O)n1 [MK1775] | inactive: -0.427
CC1(C)NC(=O)N(c2ccc([N+](=O)[O-])c(C(F)(F)F)c2)C1=O [Nilutamide] + C=CCn1c(=O)c2cnc(Nc3ccc(N4CCN(C)CC4)cc3)nc2n1-c1cccc(C(C)(C)O)n1 [MK1775] | inactive: 0.155
Oc1c2ccccc2c2c3c(cccc13)N=N2 + C=CCn1c(=O)c2cnc(Nc3ccc(N4CCN(C)CC4)cc3)nc2n1-c1cccc(C(C)(C)O)n1 [MK1775] | inactive: -1.28
C=C(C)[C@@H]1CC=C(C(=O)O)CC1 [(-)-Perillic acid] + C=CCn1c(=O)c2cnc(Nc3ccc(N4CCN(C)CC4)cc3)nc2n1-c1cccc(C(C)(C)O)n1 [MK1775] | inactive: -0.18
COC(=O)[C@@H]1[C@H]2C[C@H]3c4[nH]c5ccccc5c4CCN3C[C@@H]2CC[C@@H]1O [Yohimbine hydrochloride] + C=CCn1c(=O)c2cnc(Nc3ccc(N4CCN(C)CC4)cc3)nc2n1-c1cccc(C(C)(C)O)n1 [MK1775] | inactive: -0.185
O=C1CCc2cc(OCCCCc3nnnn3C3CCCCC3)ccc2N1 [Cilostazol] + C=CCn1c(=O)c2cnc(Nc3ccc(N4CCN(C)CC4)cc3)nc2n1-c1cccc(C(C)(C)O)n1 [MK1775] | inactive: -0.575
